Values from PubChem BioAssay AID504808 (Drosophila RNAi Screening Center, 2011).
Test: 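Genes whose loss lifts activity of an E2F-responsive reporter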 (primary screen). System: Drosophila S2 cells. Reagents: long dsRNA against Drosophila genes. Detection: 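Firefly luciferase driven by E2F sites, normalised to Renilla luciferase on the same minimal promoter, measured by plate reader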. Scale: E2F firefly: higher = more E2F reporter activity; Renilla normaliser: higher = more normaliser reporter signal. Hit rule: 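a knock-down counted as active when the firefly/Renilla E2F signal rose above 50%, a threshold chosen arbitrarily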.
In all, the deposit lists about 21,000 reagents; this is a random part of those that have a named target and a result. Of all reagents, 18 (0.084%) are marked active. 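Raw counts without plate normalisation, one of two replicates; the ratio scores behind the calls were not deposited.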 A number with no mark means an inactive call. A plus sign joins genes that one reagent is predicted to hit. Not given: the amount of reagent, the time to read-out.

target gene | DRSC id | E2F firefly, rep 1 | Renilla normaliser, rep 1
CG30159 | DRSC04981 | 77222 | 3442
Traf4 (TNF-receptor-associated factor 4) | DRSC00445 | 1.19e5 | 4463
Traf4 (TNF-receptor-associated factor 4) | DRSC00794 | 79577 | 3178
nej (nejire) | DRSC18006 | 42387 | 3645
nej (nejire) | DRSC18801 | 4762 | 672
CG17075 | DRSC00483 | 84324 | 4082
Polr3D (RNA polymerase III subunit D) | DRSC10485 | 75556 | 3960
HmgD (High mobility group protein D) | DRSC04619 | 73854 | 3592
CG31259 | DRSC14366 | 1.39e5 | 6647
CG10834 | DRSC03693 | 1.09e5 | 4195
trk (trunk) | DRSC03625 | 1.42e5 | 5217
CG30050 | DRSC05342 | 1.26e5 | 4691
TwdlL (TweedleL) | DRSC16042 | 1835 | 1140
CG11307 | DRSC11648 | 82364 | 3871
Paris (Parkin Interacting Substrate) | DRSC00451 | 89338 | 3689
blot (bloated tubules) | DRSC09485 | 1.40e5 | 4081
blot (bloated tubules) | DRSC11328 | 64450 | 3314
CG30384 | DRSC06032 | 1.56e5 | 5070
CG11353 | DRSC08182 | 77964 | 3687
bel (belle) | DRSC16555 | 1.56e5 | 7127
AOX1 (Aldehyde oxidase 1) | DRSC15339 | 79964 | 3975
Sid (Stress induced DNase) | DRSC16588 | 1.16e5 | 6931
Srr (Serine racemase) | DRSC16382 | 1.22e5 | 5497
exp (expansion) | DRSC06313 | 85323 | 4165
UK114 | DRSC01973 | 97816 | 4508
CG5493 + CG5327 | DRSC06938 | 1.43e5 | 5743
bero (belly roll) | DRSC03211 | 96536 | 4162
CG12219 | DRSC17829 | 82024 | 4458
ssx | DRSC18492 | 1391 | 840
CG3526 | DRSC17240 | 76895 | 2281
CG3526 | DRSC18636 | 1.12e5 | 6160
Irk1 (Inwardly rectifying potassium channel 1) | DRSC16106 | 1.15e5 | 6466
CG9171 | DRSC03152 | 85611 | 3543
Alg10 (ALG10 alpha-1,2-glucosyltransferase) | DRSC10892 | 1.46e5 | 7999
gammaSnap1 (gamma Soluble NSF attachment protein 1) | DRSC04686 | 76694 | 4122
Tpc2 | DRSC04322 | 1.04e5 | 4144
mRpL49 (mitochondrial ribosomal protein L49) | DRSC19908 | 1.03e5 | 5807
Meltrin | DRSC16274 | 64586 | 3645
CG4927 | DRSC06903 | 1.54e5 | 5137
CG13760 | DRSC18617 | 1.42e5 | 6377
CG3088 | DRSC10352 | 69286 | 3221
CG5003 | DRSC15694 | 1682 | 940
Ldh (Lactate dehydrogenase) | DRSC11198 | 1.01e5 | 4293
ara (araucan) | DRSC11322 | 97307 | 5344
nompB (no mechanoreceptor potential B) | DRSC03701 | 1.07e5 | 4187
nompB (no mechanoreceptor potential B) | DRSC03731 | 1.15e5 | 4908
GXIVsPLA2 | DRSC10243 | 63520 | 3158
CG9875 | DRSC04585 | 1.03e5 | 4697
bigmax | DRSC15481 | 1868 | 972
CG7497 | DRSC10857 | 77044 | 3380
Trim9 (Tripartite motif containing 9) | DRSC02242 | 1.60e5 | 5560
bur (burgundy) | DRSC03163 | 80386 | 3702
cora (coracle) | DRSC07597 | 1.52e5 | 5563
spoon (spoonbill) | DRSC18299 | 7985 | 696
CG34248 | DRSC09426 | 1.38e5 | 4615
STUB1 (STIP1 homology and U-box containing protein 1) | DRSC03282 | 1.65e5 | 5185
CG17475 | DRSC15238 | 1.31e5 | 6566
Cpr49Aa (Cuticular protein 49Aa) | DRSC07197 | 98733 | 4304
Slob (Slowpoke binding protein) | DRSC02296 | 1.44e5 | 4911
gl (glass) | DRSC16957 | 1.47e5 | 7910
alt (aluminum tubes) | DRSC15315 | 74525 | 3219
CG14273 | DRSC02377 | 1.34e5 | 4897
CG8564 | DRSC10997 | 68309 | 3089
CG6325 | DRSC16020 | 65218 | 3428
pasi1 (pasiflora 1) | DRSC16299 | 1.23e5 | 5962
ZnT63C (Zinc transporter 63C) | DRSC08032 | 1.26e5 | 3606
ZnT63C (Zinc transporter 63C) | DRSC08033 | 1.34e5 | 3777
ZnT63C (Zinc transporter 63C) | DRSC08519 | 74850 | 3562
CG42323 | DRSC19629 | 1.60e5 | 6406
CG14694 | DRSC14917 | 1.41e5 | 6179
CG30413 | DRSC04001 | 1.23e5 | 4960
CG32260 | DRSC08084 | 1.14e5 | 4429
Arp1 (Actin-related protein 1) | DRSC14118 | 1.52e5 | 6144
Idgf1 (Imaginal disc growth factor 1) | DRSC03349 | 88223 | 3288
crq (croquemort) | DRSC00810 | 1.72e5 | 6330
lncRNA:CR42646 (long non-coding RNA:CR42646) | DRSC04759 | 1.37e5 | 5192
Cpr64Ac (Cuticular protein 64Ac) | DRSC08462 | 1.10e5 | 4139
CG12662 | DRSC17865 | 74999 | 3948
CG34221 | DRSC06150 | 1.33e5 | 5014
FoxP (Forkhead box P) | DRSC15159 | 1.39e5 | 5359
thr (three rows) | DRSC07706 | 69629 | 4360
Gr47a (Gustatory receptor 47a) | DRSC06221 | 1.36e5 | 5197
CG9643 | DRSC00722 | 1.47e5 | 5606
CG33768 | DRSC11715 | 1.18e5 | 6737

Just “Renilla normaliser, rep 1”, for 5 of the entries above:
blot (bloated tubules) [DRSC11328]: 3314
CG30384 [DRSC06032]: 5070
CG11353 [DRSC08182]: 3687
bel (belle) [DRSC16555]: 7127
AOX1 (Aldehyde oxidase 1) [DRSC15339]: 3975
